Screen size: about 320,000 compounds; about 620 (0.19%) were called active. This list was built around the results that the source calls inconclusive (neither active nor inactive); the mix of calls is not that of the screen. Rule as the data show it: active = activation above about 80%; inconclusive = between about 30% and that limit; inactive = weaker than that.
What follows are compounds tested against Transient receptor potential cation channel subfamily V member 1 (Homo sapiens) (UniProt Q8NER1) (assay: HTS Assay for Compounds that Act as Agonists of the Vanilloid Receptor 1). Conditions: TRPV1-expressing cells, Fluo-8 calcium influx, agonist mode; at 8.33 µM, stronger effect = higher value.
Summary of the method: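 Fluo-8 calcium influx in TRPV1-expressing cells, kinetic read (ex 480/em 520 nm). Compound added and read 3 min for agonist activity, followed by capsaicin at EC20 final and 2 min further read for enhancement.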
Also: 0% is about no effect.

Amino acid sequences for entries named in this document (tags omitted).
UniProt Q8NER1, whole entry, looked up: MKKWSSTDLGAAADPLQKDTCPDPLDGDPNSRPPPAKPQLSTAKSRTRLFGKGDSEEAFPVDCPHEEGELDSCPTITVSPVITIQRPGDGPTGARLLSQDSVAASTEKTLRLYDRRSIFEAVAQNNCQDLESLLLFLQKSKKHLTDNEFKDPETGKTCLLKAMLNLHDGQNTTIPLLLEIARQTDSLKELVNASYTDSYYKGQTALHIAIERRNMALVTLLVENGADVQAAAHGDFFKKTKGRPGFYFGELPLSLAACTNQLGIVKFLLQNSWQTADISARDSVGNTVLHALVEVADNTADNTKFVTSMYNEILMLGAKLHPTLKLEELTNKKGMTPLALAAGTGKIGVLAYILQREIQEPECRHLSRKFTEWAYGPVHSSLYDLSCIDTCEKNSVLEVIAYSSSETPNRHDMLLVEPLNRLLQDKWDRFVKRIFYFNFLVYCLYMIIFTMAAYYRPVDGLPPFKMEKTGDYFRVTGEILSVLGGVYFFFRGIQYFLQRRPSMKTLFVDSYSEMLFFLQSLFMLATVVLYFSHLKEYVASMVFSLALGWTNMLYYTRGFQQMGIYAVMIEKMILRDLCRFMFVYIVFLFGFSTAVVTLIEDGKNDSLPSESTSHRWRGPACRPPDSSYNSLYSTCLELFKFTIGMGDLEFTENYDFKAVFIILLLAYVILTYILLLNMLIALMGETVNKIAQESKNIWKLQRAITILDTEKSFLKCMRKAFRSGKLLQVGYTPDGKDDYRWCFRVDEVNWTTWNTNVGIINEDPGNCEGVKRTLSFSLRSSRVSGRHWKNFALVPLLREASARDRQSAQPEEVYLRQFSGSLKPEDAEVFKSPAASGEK

| SMILES | activation |
| --- | --- |
| Cc1ccc(C(=O)Nc2cccc(S(=O)(=O)N3CCOCC3)c2)cc1[N+](=O)[O-] | inconclusive: 69.2% |
| COc1ccc(CN(C)CC(O)COc2ccc(-c3ccccc3)cc2)cc1OC (stereo unspecified) | inactive: 4.26% |
| O=C(N/N=C\c1ccncc1)c1ccc(Br)s1 | inconclusive: 41.7% |
| CCOc1cccc(Oc2ncccc2C(=O)/C(C#N)=C/N(C)C)c1 | inactive: 2.04% |
| O=C(Nc1ccc(C(O)(C(F)(F)F)C(F)(F)F)cc1)c1ccc(Cl)c([N+](=O)[O-])c1 | inactive: -3.41% |
| Cc1cn([C@@H](CCCCNC(=O)OC(C)(C)C)C(=O)NCCCCCCCCCCC(=O)N2CCN(C(=O)OC(C)(C)C)CC2)nn1 | inconclusive: 40.3% |
| COc1cc(/C=N/N=C(/N)c2nonc2N)cc(Br)c1OCc1ccccc1C | inconclusive: 55.2% |
| O=C(COc1ccc(Cl)cc1)NCCSCc1cccc(Cl)c1 | inconclusive: 36.3% |
| CCN(CC)S(=O)(=O)c1cc(C(=O)Nc2ccccn2)ccc1C | inconclusive: 37% |
| O=C(Nc1ccc(Br)cc1)N1CCCCCCC1 | inconclusive: 76.6% |
| O=C(OCc1cn(Cc2ccccc2)nn1)c1ccccc1 | inconclusive: 49.3% |
| CC(=O)Nc1nc(C2COc3ccccc3O2)cs1 (stereo unspecified) | inactive: 9.17% |
| CC1=CC(C)(C)C(C(=O)O)C(C(=O)O)C1 (stereo unspecified) | inactive: 0.448% |
| Cc1ccc(F)c(Cn2cnc3c(cnn3C(C)(C)C)c2=O)c1Cl | inconclusive: 39.9% |
| CC1(C)Cc2c(cnn2-c2cccc(F)c2)C(NC(=O)c2ccc(=O)[nH]n2)C1 (stereo unspecified) | inconclusive: 67.7% |
| CN(CCOC(=O)c1ccc2c(c1)OCO2)C(C)(C)C | inactive: 3.1% |
| O=C(Nc1ccc(Nc2ccccc2)cc1)c1ccc(Br)cc1 | inconclusive: 37.7% |
| Cc1cc(NC(=O)c2ccccc2)sc1C | inconclusive: 69.8% |
| Cc1ccc(S(=O)(=O)c2nc(-c3ccccc3Cl)oc2NCCCN2CCOCC2)cc1 | inactive: 1.99% |
| Cc1ccc(NC(=O)c2scc3c2CCCC3)cc1 | inconclusive: 72% |
| N#C/C(=C\c1cccnc1)c1ccc([N+](=O)[O-])cc1 | inconclusive: 40% |
| COc1cc(/C=N/n2c(C3CCCCC3)n[nH]c2=S)ccc1O | inactive: 0.783% |
| Cn1ccnc1Sc1ccc(/C=N/NC(=O)c2ccccc2O)cc1[N+](=O)[O-] | inconclusive: 63.4% |

| SMILES | activation |
| --- | --- |
| C/C(=C/c1ccccc1)C(=O)N1CCN(c2ccccc2F)CC1 | inconclusive: 35.7% |
| O=C(C1CCN(c2nc3nonc3nc2N2CCCCC2)CC1)N1CCOCC1 | inconclusive: 46.4% |
| COc1ccc(-c2[nH]ncc2-c2ccc(Cl)cc2)c(O)c1 | inactive: -0.28% |
| CCCc1cc(=O)n2[nH]c(SCc3ccc(Cl)cc3)nc2n1 | inactive: 0.678% |
| CCOc1ccc(N/C=C/C(=O)c2ccccc2)c([N+](=O)[O-])c1 | inactive: 4.24% |
| CCN1/C(=C\C=C(C(C)=O)C(C)=O)Sc2ccccc21 | inactive: 13.2% |
| O=C1C=C(Nc2cccc3cccnc23)c2ccccc2C1=O | inactive: -1.61% |
| COCCCn1c(C(=O)NC2CCCCC2C)cc2c(=O)n3cccc(C)c3nc21 (stereo unspecified) | inconclusive: 58.9% |
| COc1ccc2nc3c(cc2c1)c(NC(=O)CC(C)C)nn3CC(C)C | inconclusive: 41.9% |
| c1cncc(-c2nc(-c3ccc4c(c3)OCCO4)cs2)c1 | inconclusive: 37.9% |
| CN(Cc1ccccc1)C(=O)c1nc[nH]c1C(=O)N1CCc2ccccc2C1 | inactive: -0.57% |
| COc1ccccc1/C=N/NC(=O)c1ccc(NC(=O)c2ccccc2Br)cc1 | inconclusive: 47.3% |
| CC(C)Cn1c(-c2cccs2)nc2nc3ccccc3nc21 | inconclusive: 30.3% |
| Cn1c(-c2ccc3c(c2)OCO3)cnc1N | inactive: -0.69% |
| Cc1ccc(CN(C)C(=O)COC(=O)CSc2cc(C)c3ccccc3n2)cc1 | inactive: 2.72% |
| O=C(c1cccs1)N1CCN(c2nc3ccccc3s2)CC1 | inconclusive: 45.4% |
| O=C(Cc1ccc(S(=O)(=O)N2CCOCC2)s1)N(Cc1ccccc1)c1ccccc1 | inconclusive: 45.1% |
| CN(C)C=Nc1c(Br)cc(Br)c2nonc12 | inconclusive: 42.6% |
| CCOc1cc(/C=C/C(=O)NCCc2ccc(S(N)(=O)=O)cc2)ccc1OCC(C)C | inconclusive: 49.7% |
| Cc1c(-n2c(SCC(=O)C(C)(C)C)nc3ccccc3c2=O)c(=O)n(-c2ccccc2)n1C | inactive: -4.39% |
| COc1ccc2c(c1)sc(N)[n+]2Cc1cc(C)cc2cccnc12 | inactive: -2.32% |
| O=C1C(Nc2ccccc2)=C/C(=N/S(=O)(=O)c2cccs2)c2ccccc21 | inactive: 27.2% |
| CCOc1cc(C)c(C(C)C)cc1S(=O)(=O)N1CC(C)OC(C)C1 (stereo unspecified) | inconclusive: 48.6% |

No new results follow: 2 of the compounds above.

| SMILES | activation |
| --- | --- |
| Cc1cn([C@@H](CCCCNC(=O)OC(C)(C)C)C(=O)NCCCCCCCCCCC(=O)N2CCN(C(=O)OC(C)(C)C)CC2)nn1 | inconclusive: 40.3% |
| COc1cc(/C=N/N=C(/N)c2nonc2N)cc(Br)c1OCc1ccccc1C | inconclusive: 55.2% |

From PubChem BioAssay AID540275 (National Center for Advancing Translational Sciences (NCATS), 2011)
